{"source": "patent US20210052528A1", "about": "“THE USE OF SGC ACTIVATORS AND SGC STIMULATORS FOR THE TREATMENT OF COGNITIVE IMPAIRMENT” (Bayer Aktiengesellschaft, priority 2018, published 2021)", "tested_on": "male Wistar rats", "assay": "Object Location Task (OLT), learning and memory improvement in vivo", "design": "species or system rat", "settings": "1.0 mg/kg p.o. 30 min before T1, 24 h interval", "description": "The aim of the non-clinical studies was to test the effects of the compounds of formula (5) and (6) (sGC stimulators) and the sGC activators (compounds of formula (1) and (2)) on learning and memory improvement. Therefore, the well accepted Object Location Task (OLT) in rats was used. This task allows the assessment of acquisition, consolidation and retrieval of (spatial) information into memory, and is derived from the Object Recognition Task (ORT) (e.g. Ennaceur and Delacour, 1988; Prickaerts et al., 1997).\nAll experimental procedures were approved by the local ethical committee of Maastricht University for animal experiments and met governmental guidelines. Twenty-four 3-4-months-old male Wistar rats (Charles River, Sulzfeld, Germany) were used (average body weight at the beginning of the study: cohort 1 (compounds of formula (5) and (6)): 292 g; cohort 2 (compound of formula (1) and (2)): 334 g). The animals were housed individually in a standard IVC cage system on sawdust bedding in an air-conditioned room (about 20° C.). They were kept under a reversed 12/12 h light/dark cycle (lights on from 19.00 to 07.00) and had free access to food and water. Rats were housed and tested in the same room. A radio, which was playing softly, provided background noise in the room. All testing was done between 09.00 and 17.00. […]", "data": [{"smiles": "COc1cc2c(cc1OC)C(=O)C(CC1CCN(Cc3ccccc3)CC1)C2", "note": "(centres unmarked) [donepezil, reference compound]", "values": [{"measurement": "memory performance, discrimination index (d2), compared with chance level (d2=0)", "setting": "one-sample t-test", "value": "improved memory"}, {"measurement": "memory performance, discrimination index (d2), compared to the vehicle condition", "setting": "one-way ANOVA, LSD t-tests", "value": "improved memory"}]}]}
